# Measurements reported in PMC7926471 (Viruses, 2021).
# System: HCoV-229E
# Experiment: Viral replication inhibition assay: HCoV-229E in MRC5 cells, PFU assay
# Assay type: cell-based, Human Coronavirus 229E
compound,measurement,setting,value
"CN(C)C(=O)C(CCN1CCC(O)(c2ccc(Cl)cc2)CC1)(c1ccccc1)c1ccccc1 [Loperamide, loperamide]","SI (selectivity index, CC50/EC50)","HCoV-229E, MRC5 cells",106.6166
same,EC50,"Human coronavirus 229E, MRC5, 48 h",94.7 nM
